The results in this text go back to the supplement of paper PMC10338343.

± gives the standard deviation. Some of the results follow. Many entries were measured with a wide error.

The assay has as its system EfPiwi piRISC loaded with L1MC piRNA (26 nt). Briefly: pre-steady-state target cleavage rate (min^-1); guide: L1MC piRNA 5'p-UAACUAAAUACUAUGCAAGCUGUAGG; MIWI and MILI are mouse PIWI proteins and EfPiwi is from a freshwater sponge; tags in brackets are library labels; higher = faster piRNA-guided slicing of the target. Conditions: auxiliary factor: 500 nM Ephydatia muelleri Gtsf1. An outline of the steps: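 The pre-steady-state cleavage rate was derived from a burst-and-steady-state fit of Cleave-'n-Seq data. For these assays, 1 nM active affinity-purified piRISC loaded with a single synthetic guide was mixed with […] a transcribed, DNA-blocked target RNA library in HEPES–potassium acetate buffer at 33 °C, with or without 500 nM GTSF1 partner protein, for 0–8 or 0–960 min. Sequencing counts of uncleaved targets were normalised to depth and to weakly complementary targets, and k3 was capped at 0.0001 min^-1 after three trials were pooled.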
As for UCCUGGAUGUCGUUGCAUAGUGUUUAGUUA, the “pre-steady-state target cleavage rate” value came to 0.00221 ± 0.0044.

As for UCCUGCUACAGCUUGCAUAGUAUUUAGUCUA, the “pre-steady-state target cleavage rate” value stood at 0.00636 ± 0.0024.

In the case of UCCUGGAACAGCUUGCUUAGUAUUUACUUA, the “pre-steady-state target cleavage rate” value was 0.000882 ± 0.0054.

UCCUCCUACAGGUUGCAUAGUUUUUAGUUA: the “pre-steady-state target cleavage rate” value came to 0.00915 ± 0.0022.

UCCUGGAUCAGCUCUGCAUAGUAUUUAGUUA: the “pre-steady-state target cleavage rate” value was determined as 0.101 ± 0.023.

On to UCCUGGAUGUCGAACGAUUGUAUUUAGUUA, for which the “pre-steady-state target cleavage rate” value was found to be 0.000117 ± 0.045.

Take UCCUGGAUCAGCUUGCAUCGUAUUUAGUUA: the “pre-steady-state target cleavage rate” value amounted to 0.00918 ± 0.0028.

For the sequence UCCUGGUACAGCUUGGAUAGUAUUAAGUUA, the “pre-steady-state target cleavage rate” value worked out at 0.00235 ± 0.0032.

Take UCCUGGAUGUGCUUGCUUAGUUUUUAGUUA: the “pre-steady-state target cleavage rate” value was 0.000317 ± 0.015.

For the sequence UCCUCCUACUGCUUGCAUAGUUUUUAGUUA, the “pre-steady-state target cleavage rate” value was 0.0079 ± 0.0028.

UCCUGGUUCAGCUUGCAUAGUAUUUAGUUA: the “pre-steady-state target cleavage rate” value came to 0.0765 ± 0.018.

In the case of UCCUGCUACUGCUUGCAUAGUAAUUAGUUA, the “pre-steady-state target cleavage rate” value was 0.00587 ± 0.0019.

Consider UCCUCCUAACAGCUUGCAUAGUAUUUAGUUA, for which the “pre-steady-state target cleavage rate” value came to 0.0133 ± 0.0051.

On to UCCUGGAUGUCCUUGCAUAGUAUUAAGUUA, for which the “pre-steady-state target cleavage rate” value stood at 0.00404 ± 0.0034.

Regarding UCCUGGAUGUCAUUGCAUAGUAUUUAGUUA, the “pre-steady-state target cleavage rate” value came to 0.00283 ± 0.0038.

With UCCUGGUACAGCUUGAUAGUAUUUAGUUA, the “pre-steady-state target cleavage rate” value came out at 0.00334 ± 0.004.

In the case of UCCUCCUACAGCUUGGAUAGUAUUAAGUUA, the “pre-steady-state target cleavage rate” value is 0.00905 ± 0.0043.

As to UCCUGGAUGUCCUUGCAUUGUAUUUAGUUA, the “pre-steady-state target cleavage rate” value was found to be 0.00202 ± 0.0029.

For the sequence UCCUGGAUGUGCUCUGCAUAGUAUUUAGUUA, the “pre-steady-state target cleavage rate” value worked out at 0.00925 ± 0.0031.

UCCUGGUUCAGCUUGCAUAGUAAUUAGUUA: the “pre-steady-state target cleavage rate” value turned out to be 0.0107 ± 0.0037.

For UCCUGCUUCAGCUUGCAAAGUAUUUAGUUA, the “pre-steady-state target cleavage rate” value was found to be 0.0683 ± 0.018.

Take “UCCUCCUACAGCUUGCAUAGUAUUUAGUUG [g2:g26:cont:t1G]”: the “pre-steady-state target cleavage rate” value is 0.00723 ± 0.0029.

As for UCCUGGAACAGCUUGAAUAGUAUUUAGUUA, the “pre-steady-state target cleavage rate” value came out at 0.0656 ± 0.017.

In the case of UCCUGGAUGAGCUUGCAAAGUAUUUUGUUA, the “pre-steady-state target cleavage rate” value turned out to be 0.00261 ± 0.0035.
